Test results as given in patent US5824528.
For some of these results: The comparison behind a weaker result is the experiment's own reference, which may not be listed here.

The chains behind the UniProt entries cited, without tags or fusion partners. Where a name states a change or a piece, a line headed by the entry shows the natural chain unless it says otherwise.
UniProt P00573: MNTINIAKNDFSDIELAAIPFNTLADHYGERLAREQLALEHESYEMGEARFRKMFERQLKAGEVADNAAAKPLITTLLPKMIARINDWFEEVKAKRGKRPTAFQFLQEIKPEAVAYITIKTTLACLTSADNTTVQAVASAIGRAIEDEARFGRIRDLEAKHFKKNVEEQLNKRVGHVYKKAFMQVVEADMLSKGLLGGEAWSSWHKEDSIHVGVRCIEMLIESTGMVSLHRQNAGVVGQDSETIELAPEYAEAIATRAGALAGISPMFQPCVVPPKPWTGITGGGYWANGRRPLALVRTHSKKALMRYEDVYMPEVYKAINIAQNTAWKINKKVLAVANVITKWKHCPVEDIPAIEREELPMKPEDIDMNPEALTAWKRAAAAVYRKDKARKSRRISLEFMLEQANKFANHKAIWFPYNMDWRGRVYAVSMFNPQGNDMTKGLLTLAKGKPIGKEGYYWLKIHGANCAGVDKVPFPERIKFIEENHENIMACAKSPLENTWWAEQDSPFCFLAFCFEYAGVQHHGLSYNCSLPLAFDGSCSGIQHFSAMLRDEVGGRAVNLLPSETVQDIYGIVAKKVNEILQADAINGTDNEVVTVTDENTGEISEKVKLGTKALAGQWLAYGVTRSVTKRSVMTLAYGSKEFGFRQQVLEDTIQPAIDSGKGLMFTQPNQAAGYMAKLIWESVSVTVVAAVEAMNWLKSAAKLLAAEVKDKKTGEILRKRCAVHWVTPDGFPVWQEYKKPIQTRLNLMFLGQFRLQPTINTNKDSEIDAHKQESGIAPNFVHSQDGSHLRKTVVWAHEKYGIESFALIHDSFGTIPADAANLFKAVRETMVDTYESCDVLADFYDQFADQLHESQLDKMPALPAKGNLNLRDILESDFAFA
UniProt P03023, whole entry: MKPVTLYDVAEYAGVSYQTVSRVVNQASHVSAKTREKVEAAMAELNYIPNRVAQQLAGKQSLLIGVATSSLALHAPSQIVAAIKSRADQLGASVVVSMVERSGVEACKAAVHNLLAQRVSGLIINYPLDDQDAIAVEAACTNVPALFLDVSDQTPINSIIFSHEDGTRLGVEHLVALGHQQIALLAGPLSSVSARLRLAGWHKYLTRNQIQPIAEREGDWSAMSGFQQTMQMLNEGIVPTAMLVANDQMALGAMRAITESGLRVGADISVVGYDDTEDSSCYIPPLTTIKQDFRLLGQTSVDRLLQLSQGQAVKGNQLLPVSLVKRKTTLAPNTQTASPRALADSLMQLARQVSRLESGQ

Tests used:
[1] = target: T7 RNA polymerase (bacteriophage T7) (UniProt P00573); experiment: activity assay; conditions: runoff transcription, 100 nM T7 RNAP, 37 C, purified recombinant protein
[2] = target: T7 RNA polymerase (bacteriophage T7) (UniProt P00573); experiment: activity in cells; conditions: protein in cells, protein details: expressed from phage DE2/DE3 or DE3 lysogen, only the site is given
[3] = target: Lac repressor (LacI) (UniProt P03023); experiment: activity in cells; conditions: protein in cells, protein details: expressed from plasmid lacI gene, only the site is given
[4] = target: Lac repressor (LacI) (UniProt P03023); experiment: inhibition of the protein; conditions: purified recombinant protein, protein details: purified, from K. Matthews, Rice University
[5] = gene 10 expression, little if any increase in lysozyme sensitivity, variant of pET-7.1 promoter

Sequence: AGATCTCGATCCCGCGAAATTAATACGACTCACTATAGGCCTGGATCC (double strand) [pET-7 promoter (no operator)]
- functional effect ([1]; only the site is given): active
- functional effect ([2]; DE2/DE3 plating <0.01, gene 10 expression sensitive to T7 lysozyme): active

Sequence: TAATACGACTCACTATAGGAGAAGGCCTGGATCC (double strand) [pET-7.3 promoter]
- functional effect [2, 5]: active

Sequence: TAATACGACTCACTATAGGGAGACCACAACGGTTTCCCTCTAGCGGGATCC (double strand) [T7 phi10 promoter]
- functional effect ([2]; beta-galactosidase 44,000 at 2 h with IPTG vs 140 for host): active

Sequence: TAATACGACTCACTATAGGGAGAGGGGAATTGTGAGCGGATAACAATTCCCCTGGATCC (double strand) [T7lac21 promoter (operator at +21)]
- functional effect [1]: active
- activity on this sequence ([3]; pT7lac21-1: DE2 <0.01 without IPTG, less well repressed than T7lacL in vivo and in vitro): less active
- activity on this sequence ([4]; 140 nM repressor, less well repressed than T7lacL in vitro): less active

Sequence: TAATACGACTCACTATAGGGGAAGGCCTGGATCC (double strand) [pET-7.2 promoter]
- functional effect [2, 5]: active

Sequence: TAATACGACTCACTATAGGGGAATTGTGAGCGGATAACAATTCCCCTGGATCC (double strand) [T7lac promoter (operator at +15, rightward)]
- functional effect [1]: active
- activity on this sequence ([3]; beta-galactosidase from pT7lac-1b: 200 uninduced vs 30,000 with IPTG at 2 h): active
- functional effect ([2]; pT7lac-1b 30,000 at 2 h with IPTG, more sensitive to T7 lysozyme than phi10): active
- activity on this sequence ([4]; runoff transcription by T7 RNAP repressed, 140 nM repressor, IPTG 1 mM control, 37 C): active

Sequence: TAATACGACTCACTATAGGGGAATTGTTATCCGCTCACAATTCCCCTGGATCC (double strand) [T7lacL promoter (operator at +15, leftward)]
- functional effect [1]: active
- activity on this sequence ([3]; pT7lacL-1/-2: DE2 and DE3 plate normally without IPTG, <0.01 with IPTG): active
- functional effect ([2]; gene 10 expression, sensitive to T7 lysozyme): active
- activity on this sequence ([4]; runoff transcription by T7 RNAP repressed, 70 nM repressor, IPTG 1 mM control, 4 mM MgCl2, 37 C): active
